Results reported in paper PMC5070881.
Residue numbers refer to the chain shown, from its start. No constants are given. Whether binding was seen depends on the method and setting. For some of these results: Binding seen in cells or lysates may run through a third protein. Some results given as binding are weak or reduced against the parent protein; the word gives no strength. For some of these results: Tags and fused reporters may be left off the sequences shown.

Experiments:
[1] = target: T1, TBSV p33 replication protein (split ubiquitin bait) (Tomato bushy stunt virus) (UniProt P15962); experiment: two-hybrid; split ubiquitin membrane yeast two-hybrid (MYTH) in wt (NMY51) yeast; bait p33 or p36 co-expressed with prey Vps21p forms; growth read-out
T1 sequence: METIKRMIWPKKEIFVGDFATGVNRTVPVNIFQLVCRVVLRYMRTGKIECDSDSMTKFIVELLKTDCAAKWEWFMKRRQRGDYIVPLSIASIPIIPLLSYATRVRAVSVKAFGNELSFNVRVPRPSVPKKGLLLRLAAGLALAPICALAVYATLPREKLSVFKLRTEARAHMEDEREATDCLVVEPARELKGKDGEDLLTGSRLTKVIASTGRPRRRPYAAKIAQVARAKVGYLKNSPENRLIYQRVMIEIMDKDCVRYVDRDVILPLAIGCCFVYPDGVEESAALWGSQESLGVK

[2] = target: T2, TBSV p33-cYFP (Tomato bushy stunt virus) (UniProt P15962); experiment: split reporter; BiFC in N. benthamiana leaves; nYFP-AtRab5B agro-infiltrated with p33-cYFP or p36-cYFP (OD600 0.4 each), confocal microscopy 2 d after agro-infiltration, GFP channel
T2 sequence: T1 sequence

For “Vps21S21L (split ubiquitin prey) (from UniProt P36017 1-210)”, the binding [1] was “binds”.

B1: Vps21Q66L (split ubiquitin prey) (protein, UniProt P36017 1-210)
chain: MNTSVTSIKLVLLGEAAVGKSSIVLRFVSNDFAENKEPTIGAAFLTQRVTINEHTVKFEIWDTAGLERFASLAPMYYRNAQAALVVYDVTKPQSFIKARHWVKELHEQASKDIIIALVGNKIDMLQEGGERKVAREEGEKLAEEKGLLFFETSAKTGENVNDVFLGIGEKIPLKTAEEQNSASNERESNNQRVDLNAANDGTSANSACSC
In the case of B1, the binding [1] is reported as “binds”.

B2: Vps21p, wild type (split ubiquitin prey) (protein, UniProt P36017 1-210)
chain: B1 chain with L66Q
For B2, the binding [1] was “binds”.

B3: nYFP-AtRab5B (protein, UniProt Q9SN68 1-200)
chain: MAAAGNKSINAKLVLLGDVGAGKSSLVLRFVKDQFVEFQESTIGAAFFSQTLAVNDATVKFEIWDTAGQERYHSLAPMYYRGAAAAIIVFDVTNQASFERAKKWVQELQAQGNPNMVMALAGNKSDLLDARKVTAEDAQTYAQENGLFFMETSAKTATNVKEIFYEIARRLPRVQPTENPTGMVLPDRAMDRAVSSSCCA
In the case of B3, the binding [2] is reported as “binds”.
